From PubChem BioAssay AID330 (DTP/NCI, 2004)
The list shows only some results of the screen, not a fair sample: it is rich in T/C values a quarter to a half above the control, in often repeated tests (any T/C) and in doses without a T/C. Other doses and runs of a compound stand elsewhere. T/C gives the treated animals as a percentage of the vehicle group. Some entries give survivors of the animals treated and no T/C: the source files T/C as zero there, which appears to mark a toxic dose or a test without result, not a measured value. Some doses without a T/C left all or most animals alive at the check, yet need not have been tolerated: the source hardly ever lists a survival T/C far under the control, and the zero likely stands for such cases as well. Survivors were counted at the toxicity check, usually on the fifth day, unless a day is given; later deaths do not show. Schedule codes are those of the source, taken here to give the interval after Q, in days (D) or hours (H), and the number of doses after X. Some entries hold several experiments; the values are given in rising order. Where survival is the endpoint, the PubChem record calls one and a half times the control and up active, and a quarter to a half above the control has no call in these data; cut-offs in other NCI protocols can differ. Some T/C values carry the count of animals alive at the toxicity check (mostly the fifth day); where none is given, no animal had died by that day.

System: P388 leukemia ip, CD2F1 mice, survival T/C
Test: NCI In Vivo Anticancer Drug Screen. Data for tumor model P388 Leukemia (intraperitoneal) in CD2F1 (CDF1) mice
Details: T/C endpoint: median survival time, higher T/C = longer survival
[1] = dose: 100.0 mg/kg/injection, schedule: Q01DX009 (ip), vehicle: saline with Tween-80
[2] = dose: 200.0 mg/kg/injection, schedule: Q01DX009 (ip), vehicle: saline with Tween-80
[3] = dose: 50.0 mg/kg/injection, schedule: Q01DX009 (ip), vehicle: Klucel (hydroxypropylcellulose) (HPC)
[4] = dose: 100.0 mg/kg/injection, schedule: Q01DX009 (ip), vehicle: Klucel (hydroxypropylcellulose) (HPC)

With `[CH3][Sn]([CH3])([Cl])[S]CCN` the survivor count (dose: 50.0 mg/kg/injection, schedule: Q01DX009 (ip), vehicle: saline with Tween-80) was 3 of 6, the survivor count [1] was 0 of 6 and the survivor count [2] was 0 of 6.
In the case of `O=[N+]([O-])c1cnccc1Nc1ccncc1`, the survivor count (dose: 400.0 mg/kg/injection, schedule: Q01DX001 (ip), vehicle: saline with Tween-80) is reported as 0 of 6.
With `C1OC1CN1CCN(CC2CO2)CC1` (configuration not stated) the T/C (dose: 8.0 mg/kg/injection, schedule: Q01DX009 (ip), vehicle: saline) was 125 % of control, the T/C (dose: 16.0 mg/kg/injection, schedule: Q01DX009 (ip), vehicle: saline) was 145 % of control and the survivor count (dose: 64.0 mg/kg/injection, schedule: Q01DX009 (ip), vehicle: saline) was 5 of 6 and 6 of 6. For the same molecule, the survivor count (dose: 128.0 mg/kg/injection, schedule: Q01DX009 (ip), vehicle: saline) was 5 of 6.
With `C=CS(=O)(=O)c1ccc(Nc2cc(S(=O)(=O)O)c(N)c3c2C(=O)c2ccccc2C3=O)cc1` the T/C [2] was 132 % of control.
For `CC(C)C1=CC2=C[C@H](O)[C@H]3C(C)(C)CCC[C@]3(C)C2=C(O)C1=O`, the survivor count (dose: 20.0 mg/kg/injection, schedule: Q01DX009 (ip), vehicle: saline with Tween-80) was 3 of 6 and 5 of 6.
With `Cn1c(C(C)(C)O)cnc1[N+](=O)[O-]` the survivor count [1] was 6 of 6.
`CC(=O)N(C)N=Nc1ccc(C)cc1` was tested, and the T/C (dose: 200.0 mg/kg/injection, schedule: Q01DX009 (ip), vehicle: saline) was 126 % of control and the survivor count (dose: 400.0 mg/kg/injection, schedule: Q01DX009 (ip), vehicle: saline) was 5 of 6.
For `O=C1C2C(C(=O)N1c1ccc(OCc3ccccc3)cc1)C1c3ccccc3C2C2CCCCN21` (configuration not stated), the survivor count (dose: 50.0 mg/kg/injection, schedule: Q01DX009 (ip), vehicle: water) was 1 of 6.
In the case of `NC1[N-]C(C2CCCC[N-]2)CC2CCCCC21.NC1[N-]C(C2CCCC[N-]2)CC2CCCCC21.O=[N+]([O-])O.[Cu+]` (configuration not stated), the survivor count (dose: 100.0 mg/kg/injection, schedule: Q04DX002 (ip), vehicle: suspension in saline) is reported as 0 of 6, the survivor count (dose: 200.0 mg/kg/injection, schedule: Q04DX002 (ip), vehicle: suspension in saline) is reported as 0 of 6 and the survivor count (dose: 400.0 mg/kg/injection, schedule: Q04DX002 (ip), vehicle: suspension in saline) is reported as 0 of 6.
For `COc1cccc2c(NCCCCCO[N+](=O)[O-])cc[n+](C)c12`, the survivor count [3] was 5 of 6, the survivor count [4] was 2 of 6 and the survivor count (dose: 200.0 mg/kg/injection, schedule: Q01DX009 (ip), vehicle: Klucel (hydroxypropylcellulose) (HPC)) was 0 of 6.
For `CC(C)(C)C1CCC(P(C)(C)=S)CC1` (configuration not stated), the survivor count [3] was 6 of 6 and the survivor count [4] was 6 of 6.
With `BrCCC[n+]1ccc2ccccc2c1-c1nccc2ccccc12` the survivor count (dose: 25.0 mg/kg/injection, schedule: Q01DX001 (ip), vehicle: saline) was 0 of 6 and the survivor count (dose: 50.0 mg/kg/injection, schedule: Q01DX001 (ip), vehicle: saline) was 0 of 6.
For `O=Nc1ccc(O)c2ncccc12`, the T/C (dose: 200.0 mg/kg/injection, schedule: Q01DX001 (ip), vehicle: Klucel (hydroxypropylcellulose) (HPC)) was 130 % of control [5 of 6 alive].
With `CNC(=O)OCc1c(COC(=O)NC)c(-c2ccccc2)n(-c2ccc(Cl)c(Cl)c2)c1C` the T/C (dose: 12.5 mg/kg/injection, schedule: Q01DX009 (ip), vehicle: distilled water + Tween-80) was 125 % of control, the T/C (dose: 25.0 mg/kg/injection, schedule: Q01DX009 (ip), vehicle: distilled water + Tween-80) was 142 % of control and the T/C (dose: 50.0 mg/kg/injection, schedule: Q01DX009 (ip), vehicle: distilled water + Tween-80, evaluated on day 30) was 146 % of control. The T/C (dose: 50.0 mg/kg/injection, schedule: Q01DX009 (ip), vehicle: distilled water + Tween-80, evaluated on day 40) was 142 % of control.
For `COC(=O)c1nc(N)nc(C(=O)OC)c1C(=O)c1ccccn1`, the survivor count (dose: 240.0 mg/kg/injection, schedule: Q01DX005 (ip), vehicle: Klucel (hydroxypropylcellulose) (HPC)) was 2 of 6.
In the case of `COc1cc2c(c3c1c(=O)c1cc(F)ccc1n3C)C=CC(C)(C)O2`, the survivor count (dose: 50.0 mg/kg/injection, schedule: Q01DX005 (ip), vehicle: Klucel (hydroxypropylcellulose) (HPC)) is reported as 6 of 6.
`c1ccc(-c2c3ccccc3c[n+]3ccccc23)cc1` was tested, and the survivor count (dose: 12.5 mg/kg/injection, schedule: Q01DX009 (ip), vehicle: Klucel (hydroxypropylcellulose) (HPC)) was 0 of 6 and the survivor count (dose: 25.0 mg/kg/injection, schedule: Q01DX009 (ip), vehicle: Klucel (hydroxypropylcellulose) (HPC)) was 0 of 6.
With `CN(C)CCCN1c2ccccc2Oc2ccc(Cl)cc21` the survivor count (dose: 200.0 mg/kg/injection, schedule: Q01DX005 (ip), vehicle: saline) was 1 of 6.
In the case of `O=C(C(=O)C(Br)Br)C(Br)Br`, the survivor count (dose: 50.0 mg/kg/injection, schedule: Q01DX009 (ip), vehicle: DMSO) is reported as 0 of 6, the survivor count (dose: 100.0 mg/kg/injection, schedule: Q01DX009 (ip), vehicle: DMSO) is reported as 0 of 6 and the survivor count (dose: 200.0 mg/kg/injection, schedule: Q01DX009 (ip), vehicle: DMSO) is reported as 0 of 6.
